Reference: patent publication US20230263803A1, “METHODS OF PREVENTING OR TREATING COVID-19 AND RELATED VIRAL DISEASES OR DISORDERS” (KINARUS AG, priority 2020, published 2023)
Some results were stated once for a whole list of compounds, not compound by compound.

Test system: SARS-CoV-2PR1
Assay type: cell-based
Details: at the highest concentration(s); Vero B4 cells, 72 hrs, qRT-PCR

Compound	inhibition of viral shedding [%]
Cc1c(F)cc(C(=O)NC2CC2)cc1-c1ccc(C(=O)NCC(C)(C)C)cn1 [losmapimod, 6-(5-((cyclopropylamino)carbonyl)-3-fluoro-2-methylphenyl)-N-(2,2-dimethylpropyl)-3-pyridinecarboxamide]	> 90
Cn1c(=O)c(Oc2ccc(F)cc2F)cc2cnc(NC(CCO)CCO)nc21 [Pamapimod, 6-(2,4-Difluorophenoxy)-2-[3-hydroxy-1-(2-hydroxyethyl)-propylamino]-8-methyl-8H-pyrido[2,3-d]pyrimidin-7-one]	> 90
